Drawing on paper PMC12221590, this text covers binding for one substance.

Chains of the proteins cited; added tags and fusions are not shown.
UniProt Q5M9Q1: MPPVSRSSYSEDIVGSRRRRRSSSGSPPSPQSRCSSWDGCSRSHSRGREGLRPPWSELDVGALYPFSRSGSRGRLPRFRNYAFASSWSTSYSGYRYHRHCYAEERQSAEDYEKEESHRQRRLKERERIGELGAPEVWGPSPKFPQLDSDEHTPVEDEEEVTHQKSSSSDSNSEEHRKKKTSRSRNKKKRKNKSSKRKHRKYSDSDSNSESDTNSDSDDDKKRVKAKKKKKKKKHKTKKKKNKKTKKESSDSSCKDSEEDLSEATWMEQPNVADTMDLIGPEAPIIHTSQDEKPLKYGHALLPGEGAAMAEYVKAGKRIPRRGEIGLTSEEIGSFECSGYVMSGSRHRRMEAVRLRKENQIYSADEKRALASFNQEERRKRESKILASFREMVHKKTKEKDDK
UniProt P19474: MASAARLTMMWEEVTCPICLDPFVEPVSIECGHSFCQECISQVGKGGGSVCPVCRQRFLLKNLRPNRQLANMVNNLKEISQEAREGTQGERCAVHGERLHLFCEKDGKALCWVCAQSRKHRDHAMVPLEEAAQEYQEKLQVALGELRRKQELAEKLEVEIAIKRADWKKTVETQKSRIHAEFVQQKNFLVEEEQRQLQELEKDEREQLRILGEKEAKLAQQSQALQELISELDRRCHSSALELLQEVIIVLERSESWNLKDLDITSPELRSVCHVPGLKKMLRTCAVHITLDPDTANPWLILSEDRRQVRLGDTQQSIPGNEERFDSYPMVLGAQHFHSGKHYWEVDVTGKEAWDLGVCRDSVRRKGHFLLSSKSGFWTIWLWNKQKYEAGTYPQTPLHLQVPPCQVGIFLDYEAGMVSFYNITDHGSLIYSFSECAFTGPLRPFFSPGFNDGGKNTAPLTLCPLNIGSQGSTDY

Results are given in words; binding and its absence hold for the method and conditions named. In cells and extracts the contact can be indirect. Some results given as binding are weak or reduced against the parent protein; the word gives no strength.

This assay has as its target GFP-tagged NF-kappa-B-activating protein-like (NKAPL) (human) (UniProt Q5M9Q1). Briefly: co-IP; A549 lysates incubated with anti-GFP antibodies; immunoprecipitates examined by western blotting with antibodies against TRIM21 and GFP.

For the substance “tripartite motif-containing 21 (TRIM21) (from UniProt P19474 1-475)”, the binding entry is on record as “binds”.
